Nc1ccc(S(N)(=O)=O)cc1
solubility (mole fraction)
Conditions | 298.15 K | 303.15 K | 308.15 K | 313.15 K
in n-octanol | 0.000508 | 0.000601 | 0.00075 | 0.000882
in water | 0.000776 | 0.00103 | 0.00139 | 0.00175

From BigSolDB 2.1
